Measured values as given in US20060106015A1, “Novel use of benzothiazole derivatives” (priority 2002, published 2006).
Some of these results come from one statement about several compounds together.

Molecular target: T1, recombinant human Itk kinase domain fused with GST (Homo sapiens, UniProt Q08881)
T1 construct: recombinant human Itk kinase domain fused with GST; GST (Glutathione S-Transferase); made in house; host or cells: High five insect cells
T1 sequence (Q08881 363-615 limits assumed): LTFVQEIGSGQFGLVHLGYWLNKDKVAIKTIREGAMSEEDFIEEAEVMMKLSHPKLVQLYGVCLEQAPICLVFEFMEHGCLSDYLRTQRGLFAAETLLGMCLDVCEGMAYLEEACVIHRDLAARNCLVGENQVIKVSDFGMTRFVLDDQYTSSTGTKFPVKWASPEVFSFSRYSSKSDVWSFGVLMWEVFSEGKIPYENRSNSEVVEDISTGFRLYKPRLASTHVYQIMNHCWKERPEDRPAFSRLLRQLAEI
Test: Itk LANCE TRF Assay
Type: biochemical
Settings: 50 μM ATP, 2 μM peptide substrate, 50 minutes RT; read-out: IC50 values for inhibition of Itk activity
Method: The Itk kinase assay utilized recombinant human Itk kinase domain fused with GST (Glutathione S-Transferase). The protein was expressed in High five insect cells, purified in one step on an affinity chromatography glutathione column and stored in 50 mM Tris/HCl (pH 7.6), 150 mM NaCl, 5% (w/v) mannitol, 1 mM DTT, 30% glycerol at −70° C. The kinase substrate used in the assay was a biotinylated peptide derived from the Src-optimal substrate (Nair et al, J. Med. Chem., 38: 4276, 1995; biotin-AEEEIYGEFEAKKKK).
The assay additions were as follows: Test compounds (or controls; 1 μL in 100% DMSO) were added to black 96-well flat-bottomed plates (Greiner 655076) followed by 20 μL Itk in assay buffer and the reaction was started by adding 20 μL ATP and peptide substrate in assay buffer. The assay buffer constitution during phosphorylation was: 50 mM HEPES (pH 6.8), 10 mM MgCl2, 0.015% Brij 35, 1 mM DTT, 10% glycerol, 160 ng/well Itk, 2 μM peptide substrate and 50 μM ATP. The assay was stopped after 50 minutes (RT) by adding 150 μL ice-cold Stop solution (50 mM Tris/HCl, pH 7.5, 10 mM EDTA, 0.9% NaCl and 0.1% BSA) together with LANCE reagents (2 nM PT66-Eu^3+, Wallac AD0069 and 5 μg/ml Streptavidin-APC, Wallac AD0059. Both concentrations were final in stopped assay solution). The plates were measured on a Wallac 1420 Victor 2 instrument with TRF settings after 1 h incubation, and the ratio (665 signal/615 signal)*10000 was used to calculate the inhibition values. IC50 values were determined using XLfit.

Row | SMILES | IC50
1 | COc1ccc(-c2nc3ccc(C(=O)N(C)C)cc3s2)c(O)c1 [Example 46, N,N-Dimethyl-2-(2-hydroxy-4-methoxyphenyl)-1,3-benzothiazole-6-carboxamide] | < 25 µM
2 | CCOc1cncc(O)c1-c1nc2ccc(CN3CCCC3)cc2s1 [Example 36, 5-Ethoxy-4-[6-(pyrrolidin-1-ylmethyl)-1,3-benzothiazol-2-yl]pyridin-3-ol] | < 25 µM
3 | CN(C)CCN(C)Cc1ccc2nc(-c3ccc(Cl)cc3O)sc2c1 [Example 25] | < 25 µM
4 | COC(=O)[C@H](CO)NC(=O)c1ccc2nc(-c3ccccc3O)sc2c1 [Example 14, Methyl N-{[2-(2-hydroxyphenyl)-1,3-benzothiazol-6-yl]carbonyl}serinate] | < 25 µM
5 | CCN(CC)Cc1ccc2nc(-c3ccc(OC)cc3O)sc2c1 [Example 35, 2-{6-[(Diethylamino)methyl]-1,3-benzothiazol-2-yl}-5-methoxyphenol] | < 25 µM
6 | Oc1ccc(Cl)cc1-c1nc2ccc(CN3CCCC3)cc2s1 [Example 34, 4-Chloro-2-[6-(pyrrolidin-1-ylmethyl)-1,3-benzothiazol-2-yl]phenol] | < 25 µM
7 | CN(C)CCN(C)C(=O)c1ccc2nc(-c3cc(Br)ccc3O)sc2c1 [Example 11, 2-(5-Bromo-2-hydroxyphenyl)-N-[2-(dimethylamino)ethyl]-N-methyl-1,3-benzothiazole-6-carboxamide] | < 25 µM
8 | Oc1ccc(Br)cc1-c1nc2ccc(CN3CCCC3)cc2s1 [Example 32, 4-Bromo-2-[6-(pyrrolidin-1-ylmethyl)-1,3-benzothiazol-2-yl]phenol] | < 25 µM
9 | COc1ccc(O)c(-c2nc3ccc(N)cc3s2)c1 [Example 45, 2-(6-Amino-1,3-benzothiazol-2-yl)-4-methoxyphenol] | < 25 µM
10 | O=C(c1ccc2nc(-c3ccc(Cl)cc3O)sc2c1)N1CCCC1 [Example 5, 5-Chloro-2-[6-(pyrrolidin-1-ylcarbonyl)-1,3-benzothiazol-2-yl]phenol] | < 25 µM
11 | OCc1ccc2nc(-c3ccccc3O)sc2c1 [Example 44, 2-[6-(Hydroxymethyl)-1,3-benzothiazol-2-yl]phenol] | < 25 µM
12 | Oc1cc(Cl)ccc1-c1nc2cc(CN3CCCC3)ccc2s1 [Example 54, 5-Chloro-2-[5-(pyrrolidin-1-ylmethyl)-1,3-benzothiazol-2-yl]phenol] | < 25 µM
13 | O=C(NCCN1CCCC1)c1ccc2nc(-c3ccc(Cl)cc3O)sc2c1 [Example 7, 2-(4-Chloro-2-hydroxyphenyl)-N-(2-pyrrolidin-1-ylethyl)-1,3-benzothiazole-6-carboxamide] | < 25 µM
14 | O=C(NCCCN1CCOCC1)c1cccc2nc(-c3ccccc3O)sc12 [Example 56, 2-(2-Hydroxyphenyl)-N-(3-morpholin-4-ylpropyl)-1,3-benzothiazole-7-carboxamide] | < 25 µM
15 | CCN(CC)Cc1ccc2nc(-c3ccc(Cl)cc3O)sc2c1 [Example 42, 5-Chloro-2-{6-[(Diethylamino)methyl]-1,3-benzothiazol-2-yl}phenol] | < 25 µM
16 | O=C(NCCCN1CCOCC1)c1ccc2nc(-c3ccc(Cl)cc3O)sc2c1 [Example 6, 2-(4-Chloro-2-hydroxyphenyl)-N-(3-morpholin-4-ylpropyl)-1,3-benzothiazole-6-carboxamide] | < 25 µM
17 | CN(C)CCN(C)C(=O)c1ccc2nc(-c3cc(-c4ccccc4)ccc3O)sc2c1 [Example 23, N-[2-(Dimethylamino)ethyl]-2-(4-hydroxy-1,1′-biphenyl-3-yl)-N-methyl-1,3-benzothiazole-6-carboxamide] | < 25 µM
18 | Oc1cc(Cl)ccc1-c1nc2ccc(CN3CCCCC3)cc2s1 [Example 40, 5-Chloro-2-[6-(piperidin-1-ylmethyl)-1,3-benzothiazol-2-yl]phenol] | < 25 µM
19 | COc1ccc(-c2nc3ccc(C(=O)NC(CO)CO)cc3s2)c(O)c1 [Example 19, N-[2-Hydroxy-1-(hydroxymethyl)ethyl]-2-(2-hydroxy-4-methoxyphenyl)-1,3-benzothiazole-6-carboxamide] | < 25 µM
20 | COCCN1CCN(C(=O)c2ccc3nc(-c4ccc(Cl)cc4O)sc3c2)CC1 [Example 8, 5-Chloro-2-(6-{[4-(2-methoxyethyl)piperazin-1-yl]carbonyl}-1,3-benzothiazol-2-yl)phenol] | < 25 µM
